Measured values taken from PubChem BioAssay AID540256 (National Center for Advancing Translational Sciences (NCATS), 2011).
In all, about 300,000 compounds went through this assay and about 3,700 (1.2%) were called active. The inconclusive results got no clear call from the source; some entries with a clear call stand among them for comparison. The call rests on the fitted dose curve; tested in HEK293 cells. Where the call is inconclusive, the potency comes from a doubtful curve fit.

Experiment: qHTS for Inhibitors of binding or entry into cells for Lassa Virus; further: nearly all actives have a fitted effect of over 50% in size
Conditions: Lassa virus pseudotype entry inhibition, cell reporter; series mostly up to 37.9 µM
Potency means the concentration at half of the fitted maximal effect.

| Compound | Potency |
| --- | --- |
| CC/C(=C\c1ccc(Cl)cc1)c1ccncc1 | inactive |
| Cc1noc(/C=C/N(C)C)c1S(=O)(=O)N1CCCC(C(=O)NCc2ccc(Cl)cc2)C1 (stereo not drawn) | inactive |
| CC1Cc2nc(SCC(=O)NCC3CCCO3)n(Cc3ccccc3)c(=O)c2S1 (stereo not drawn) | inactive |
| CCNS(=O)(=O)c1ccc2nc(NC(=O)c3cccnc3)sc2c1 | inactive |
| CSc1nc2sc3c(c2c(=O)n1-c1ccc(C)c(Cl)c1)CCN(C(C)=O)C3 | inactive |
| Cc1ccn2cc(-c3cc4ccccc4oc3=O)nc2c1 | active: 1.58 µM |
| CCCN(c1ccc(C(C)C)cc1)S(=O)(=O)c1c(C)noc1C | inconclusive: 23.1 µM [inhibitor, single point] |
| Cc1ccc(C(=O)/C=C2\NCC(C)NC2=O)cc1 (stereo not drawn) | active: 8.91 µM |
| Cc1ccc2ccccc2c1CSc1nc(N)nc2c1ncn2CC(C)C | inconclusive: 35.5 µM [inhibitor, single point] |
| O=C1CC(N2CCN(c3ccccc3Cl)CC2)C(=O)N1c1ccccc1 (stereo not drawn) | inconclusive: 0.708 µM [activator, partial curve, poor fit] |
| Cc1nn(-c2ccccc2[N+](=O)[O-])c(=O)c2ccccc12 | inconclusive: 6.31 µM [activator, full curve, poor fit] |
| COc1cccc(-c2cc3c(c4c2ccn4C)C2CCC3C2)c1 (stereo not drawn) | inconclusive: 19.9 µM [inhibitor, partial curve, poor fit] |
| CC1(c2ccc([N+](=O)[O-])cc2)NC(=O)N(CC(=O)Nc2cccnc2Cl)C1=O (stereo not drawn) | inactive |
| CC1Cc2nc(SCC(=O)NCC3CCCO3)n(C)c(=O)c2S1 (stereo not drawn) | inactive |
| COc1ccc2nc(N3C(=O)C(O)=C(C(=O)c4ccco4)C3c3ccc(C)o3)sc2c1 (stereo not drawn) | inactive |
| COc1ccc(/C=C/C(=O)Nc2cccc(N3CCOCC3)c2)cc1OC | inconclusive: 2.59 µM [inhibitor, partial curve, poor fit] |
| O=C(c1ccc(F)cc1)C1CCN(C(=O)Nc2ccc(F)cc2)CC1 | inconclusive: 0.231 µM [inhibitor, partial curve, poor fit] |
| COc1ccc2[nH]c3c(=O)n(CCCCC(=O)NCCC(C)C)c(=S)[nH]c3c2c1 | inactive |
| COc1ccc(NC(=O)c2cc(-c3ccccc3OC)on2)cc1 | inconclusive: 1.83 µM [inhibitor, full curve] |
| CC(=O)Nc1cccc(C(=O)N2CCC(n3nccc3NC(=O)CC(C)C)CC2)c1 | inactive |
| CCOC(=O)c1cnn(-c2ccc(OC)cc2)c1C1CCN(C(=O)OC(C)(C)C)CC1 | inconclusive: 0.794 µM [inhibitor, full curve, poor fit] |
| Cc1ccc(N/N=C(\C#N)C(=N)N2CCOCC2)cc1 | inconclusive: 3.98 µM [activator, single point] |
| Cc1ccc(NC(=O)CSc2ccccc2NC(=O)c2ccccc2Cl)cc1Cl | inactive |
| CCCOc1ccccc1N/C(=N/c1nc(C)cc(C)n1)NC(=O)Nc1ccc(Cl)cc1 | inconclusive: 35.5 µM [inhibitor, partial curve, poor fit] |
| CCCCN(C(=O)c1cccc2c(=O)c(C)c(-c3ccccc3)oc12)c1ccccc1 | active: 11.6 µM |

| Compound | Potency |
| --- | --- |
| CCN1/C(=C/c2ccc3cc(C)ccc3[n+]2CC)Sc2cc(C)c(C)cc21 | active: 2 µM |
| Cc1ccc(CS(=O)(=O)c2nc3c(c(N(C)C)n2)CCCC3)cc1 | inconclusive: 11.2 µM [inhibitor, single point] |
| CN(C)N1C(=O)C2C3C=CC(O3)C2C1=O (stereo not drawn) | inactive |
| CC(NCC(=O)NCC(=O)Nc1ccc(F)cc1)c1cccc(C(F)(F)F)c1 (stereo not drawn) | inactive |
| CN(C)c1ccc(Nc2nc(N)c([N+](=O)[O-])c(N3CCOCC3)n2)cc1 | inconclusive: 13 µM [inhibitor, partial curve, poor fit] |
| CSC(=NC1CCCCC1)NS(=O)(=O)c1ccccc1 | inconclusive: 0.562 µM [inhibitor, full curve, poor fit] |
| Cc1cccc(Cn2c(N3CCc4ccccc4C3)nc3c2c(=O)[nH]c(=O)n3C)c1 | inactive |
| O=C(Nc1ccc(N2CCOCC2)cc1)c1cnccn1 | active: 2.24 µM |
| O=C1N/C(=N/O)S/C1=C/c1cccnc1 | inconclusive: 20.6 µM [activator, partial curve, poor fit] |
| Cc1ccccc1NC(=O)CC1SC(=NC2CCCCC2)NC1=O (stereo not drawn) | inactive |
| CC(=O)c1c(C)[nH]c(C(=O)OCC(=O)NCCc2ccc(Cl)cc2)c1C | inconclusive: 0.562 µM [inhibitor, full curve, poor fit] |
| O=C1c2[nH]nc(-c3ccccc3O)c2C(c2ccccc2F)N1Cc1ccco1 (stereo not drawn) | active: 5.17 µM |
| O=C(/C=C/Nc1ccc(F)cc1Br)c1ccccc1 | active: 2 µM |
| COc1ccc(-c2cc(C(F)F)n3ncc(C(=O)Nc4cc(C)on4)c3n2)cc1 | inactive |
| COc1cccc(-c2nc(C=O)cs2)c1 | inactive |
| COc1cc(C(=O)N(Cc2ccc(C(C)C)cc2)C2CCS(=O)(=O)C2)cc(OC)c1OC (stereo not drawn) | inconclusive: 5.01 µM [inhibitor, full curve] |
| COc1ccc(COC(=O)NN=C2C[C@@H](O)[C@@H](O)[C@@H]3[C@H]4C(=O)N(C[C@@H]5CCCO5)C(=O)[C@@H]4CC[C@@H]23)cc1 | inconclusive: 0.531 µM [inhibitor, full curve] |
| O=C(c1ccc(-n2cccn2)cc1)N1CCc2ccccc2C1 | inactive |
| N#CC1(NC(=O)COC(=O)c2nc(Cl)c(Cl)c(N)c2Cl)CCCCC1 | inconclusive: 35.5 µM [activator, single point] |
| COc1ccc([N+](=O)[O-])cc1NC1CCCCC1 | inconclusive: 5.17 µM [inhibitor, partial curve, poor fit] |
| O=C(CCc1c[nH]c2ccccc12)N/N=C/c1ccc2c(c1)OCO2 | inconclusive: 8.91 µM [inhibitor, partial curve, poor fit] |
| COC(=O)c1ccc(NC(=O)CSc2nc(=O)n(Cc3ccco3)c3c2CCC3)cc1 | inactive |
| CCOc1ccc(CCNC(=O)c2ccc3c(c2)c(C)c(C)n3C)cc1 | inconclusive: 6.31 µM [inhibitor, full curve, poor fit] |
| c1ccc(CN2CCN(c3ncnc4c3[nH]c3ccccc34)CC2)cc1 | inconclusive: 12.6 µM [inhibitor, partial curve, poor fit] |
| Cc1cc2ccccn2c1C(=O)c1ccc(C#N)cc1 | inconclusive: 15.8 µM [inhibitor, partial curve, poor fit] |

| Compound | Potency |
| --- | --- |
| Cc1ccc(C)c(OCC(=O)N(Cc2ccccc2)c2c(N)n(Cc3ccccc3)c(=O)[nH]c2=O)c1 | inactive |
| CCOC(=O)C1CCCN(C(=O)Cn2ncc3c([nH]c4ccccc43)c2=O)C1 (stereo not drawn) | inconclusive: 39.8 µM [inhibitor, partial curve, poor fit] |
| O=C(/C=C/c1ccco1)N1CCN(S(=O)(=O)c2ccc(F)c(F)c2F)CC1 | inconclusive: 35.5 µM [inhibitor, single point] |
| CCC1=C(CC2NCCc3ccccc32)CC2c3cc(OC)c(OC)cc3CCN2C1 (stereo not drawn) | inconclusive: 35.5 µM [inhibitor, single point] |
| CCN(C(=O)CSc1nc2ccccc2n1CC(=O)Nc1cccc(C#N)c1)c1ccccc1 | inconclusive: 11.2 µM [inhibitor, partial curve, poor fit] |
| O=S(=O)(c1cccc(S(=O)(=O)N2CCCC2)c1)N1CCCCC1 | inconclusive: 35.5 µM [activator, single point] |
| CCCCCCN(CCCCCC)C(=O)Cc1c(-c2ccc(F)cc2)[nH]c2ccccc12 | active: 9.2 µM |
| Cc1ccccc1OCc1ccc(C(=O)N2CC(C)OC(C)C2)o1 (stereo not drawn) | inconclusive: 3.55 µM [inhibitor, partial curve, poor fit] |
| Cc1occc1C(=O)OCC(=O)Nc1ccc(F)cc1 | inconclusive: 2 µM [activator, full curve, poor fit] |
| CCOC(=O)c1c(C)n(C)c2ccc(OC)c(NC(=O)CN3CCN(C4CCCCC4)CC3)c12 | inactive |
| CCN(CC)CCNC(=O)c1ccc(NC(C)=O)cc1 | inactive |
| Fc1ccc(CN2CCN(C(=S)NCCc3ccccc3)CC2)c(Cl)c1 | inconclusive: 35.5 µM [inhibitor, partial curve, poor fit] |
| COc1ccc(OCc2cnc(Cl)s2)cc1 | inactive |
| CN1CCN(C2Cc3ccc(Cl)cc3Sc3ccc(F)cc32)CC1 (stereo not drawn) | inconclusive: 25.1 µM [inhibitor, single point] |
| O=C(CSc1nc2ncc(Cl)cc2[nH]1)c1c[nH]c2ccccc12 | inconclusive: 3.16 µM [activator, single point] |
| CC(C)NS(=O)(=O)c1ccc(NC(=S)NC(=O)c2ccc(-c3ccccc3)cc2)cc1 | inactive |
| Cc1c(NC(=O)c2ccc3c(c2)OCO3)cccc1-c1nc2ccccc2o1 | active: 20.6 µM |
| Cc1[nH]n2c(=O)cc(-c3ccccc3Cl)nc2c1-c1ccccc1 | inconclusive: 7.94 µM [inhibitor, partial curve, poor fit] |
| CCn1c(COc2ccc(=O)n(-c3ccccc3)n2)nnc1SCc1cccc(OC)c1 | inactive |
| CC(=O)C1=C(OC(=O)C(C)C)c2ccccc2S(=O)(=O)N1Cc1ccccc1 | inactive |
| Nc1nc(N2CCN(c3ccc(F)cc3)CC2)n[nH]1 | inactive |
| Cc1nc2ccccc2c(=O)n1NC(=O)c1c(O)c2c(n(CC(C)C)c1=O)CCCC2 | inactive |
| CCC(=O)N1CCc2cc(Br)cc(S(=O)(=O)NCCc3ccc(OC)c(OC)c3)c21 | inactive |

Part of the list above in order of heavy-atom count, low to high:

| Compound | Potency |
| --- | --- |
| CN(C)N1C(=O)C2C3C=CC(O3)C2C1=O (stereo not drawn) | inactive |
| COc1ccc(OCc2cnc(Cl)s2)cc1 | inactive |
| CC/C(=C\c1ccc(Cl)cc1)c1ccncc1 | inactive |
| Cc1ccc(C(=O)/C=C2\NCC(C)NC2=O)cc1 (stereo not drawn) | active: 8.91 µM |
| O=C(/C=C/Nc1ccc(F)cc1Br)c1ccccc1 | active: 2 µM |
| Cc1ccc(N/N=C(\C#N)C(=N)N2CCOCC2)cc1 | inconclusive: 3.98 µM [activator, single point] |
| O=S(=O)(c1cccc(S(=O)(=O)N2CCCC2)c1)N1CCCCC1 | inconclusive: 35.5 µM [activator, single point] |
| CN1CCN(C2Cc3ccc(Cl)cc3Sc3ccc(F)cc32)CC1 (stereo not drawn) | inconclusive: 25.1 µM [inhibitor, single point] |
| N#CC1(NC(=O)COC(=O)c2nc(Cl)c(Cl)c(N)c2Cl)CCCCC1 | inconclusive: 35.5 µM [activator, single point] |
| Fc1ccc(CN2CCN(C(=S)NCCc3ccccc3)CC2)c(Cl)c1 | inconclusive: 35.5 µM [inhibitor, partial curve, poor fit] |
| CCN1/C(=C/c2ccc3cc(C)ccc3[n+]2CC)Sc2cc(C)c(C)cc21 | active: 2 µM |
| CC1(c2ccc([N+](=O)[O-])cc2)NC(=O)N(CC(=O)Nc2cccnc2Cl)C1=O (stereo not drawn) | inactive |
| COc1ccc2[nH]c3c(=O)n(CCCCC(=O)NCCC(C)C)c(=S)[nH]c3c2c1 | inactive |
| Cc1cccc(Cn2c(N3CCc4ccccc4C3)nc3c2c(=O)[nH]c(=O)n3C)c1 | inactive |
| Cc1nc2ccccc2c(=O)n1NC(=O)c1c(O)c2c(n(CC(C)C)c1=O)CCCC2 | inactive |
| CCCOc1ccccc1N/C(=N/c1nc(C)cc(C)n1)NC(=O)Nc1ccc(Cl)cc1 | inconclusive: 35.5 µM [inhibitor, partial curve, poor fit] |
| CCN(C(=O)CSc1nc2ccccc2n1CC(=O)Nc1cccc(C#N)c1)c1ccccc1 | inconclusive: 11.2 µM [inhibitor, partial curve, poor fit] |
| Cc1ccc(C)c(OCC(=O)N(Cc2ccccc2)c2c(N)n(Cc3ccccc3)c(=O)[nH]c2=O)c1 | inactive |
| COc1ccc(COC(=O)NN=C2C[C@@H](O)[C@@H](O)[C@@H]3[C@H]4C(=O)N(C[C@@H]5CCCO5)C(=O)[C@@H]4CC[C@@H]23)cc1 | inconclusive: 0.531 µM [inhibitor, full curve] |
